Assay [1] concerns the target cyclin-dependent kinase 1 (CDK1) (human (endogenous in HeLa)) (UniProt P06493). In words: co-IP; HeLa cells synchronized to M phase, whole-cell lysate, primary antibody overnight at 4 °C, protein A/G Sepharose beads, immunoblot; in some panels cells transfected with wild-type or S243A KCTD12 plasmid (Figure 7c) or treated with DMSO or VX-680 0.5 μM, 24 h (Figure 7b, d).

Protein sequences, listed by entry. Tags and fused reporters are not part of them.
UniProt P06493: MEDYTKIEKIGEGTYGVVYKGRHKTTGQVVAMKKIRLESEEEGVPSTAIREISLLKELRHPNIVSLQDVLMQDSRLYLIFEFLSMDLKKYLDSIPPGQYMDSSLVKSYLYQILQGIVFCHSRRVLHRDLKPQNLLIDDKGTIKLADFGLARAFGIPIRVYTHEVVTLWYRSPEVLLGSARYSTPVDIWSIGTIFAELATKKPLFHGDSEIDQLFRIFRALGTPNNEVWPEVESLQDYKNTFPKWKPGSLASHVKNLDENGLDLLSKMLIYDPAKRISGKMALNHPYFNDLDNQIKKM
UniProt Q96CX2: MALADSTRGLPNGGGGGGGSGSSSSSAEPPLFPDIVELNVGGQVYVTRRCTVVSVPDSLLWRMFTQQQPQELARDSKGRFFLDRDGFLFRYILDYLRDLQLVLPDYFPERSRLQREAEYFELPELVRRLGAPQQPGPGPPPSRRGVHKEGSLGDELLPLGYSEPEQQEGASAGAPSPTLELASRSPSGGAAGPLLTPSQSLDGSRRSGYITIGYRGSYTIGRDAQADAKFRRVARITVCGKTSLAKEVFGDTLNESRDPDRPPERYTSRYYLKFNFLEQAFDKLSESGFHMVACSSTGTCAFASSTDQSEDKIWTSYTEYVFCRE

In assay [2] the target is T1, cell division cycle 25B (CDC25B) (human (endogenous in HeLa)) (UniProt P30305).
T1 sequence: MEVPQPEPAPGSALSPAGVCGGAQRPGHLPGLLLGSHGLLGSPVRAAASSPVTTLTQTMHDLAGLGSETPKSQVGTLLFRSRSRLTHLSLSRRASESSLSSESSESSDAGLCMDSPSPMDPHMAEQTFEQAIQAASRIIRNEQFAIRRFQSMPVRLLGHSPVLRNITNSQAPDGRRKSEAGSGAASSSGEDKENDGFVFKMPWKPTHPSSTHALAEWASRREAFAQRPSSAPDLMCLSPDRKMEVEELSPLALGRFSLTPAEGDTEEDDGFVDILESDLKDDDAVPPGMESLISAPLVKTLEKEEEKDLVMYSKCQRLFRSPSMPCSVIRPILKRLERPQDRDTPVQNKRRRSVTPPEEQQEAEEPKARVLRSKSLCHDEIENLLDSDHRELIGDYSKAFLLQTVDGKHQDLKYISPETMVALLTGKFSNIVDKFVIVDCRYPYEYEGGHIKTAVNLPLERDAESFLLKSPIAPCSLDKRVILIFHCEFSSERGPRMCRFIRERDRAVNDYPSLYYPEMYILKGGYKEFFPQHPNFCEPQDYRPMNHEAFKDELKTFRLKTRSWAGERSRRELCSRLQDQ
The assay is described as above.

Assay [3] has as its target cyclin-dependent kinase 1 (CDK1) (human (endogenous in HeLa)) (UniProt P06493). In words: condition: only cells treated with VX-680 (0.5 μM, 24 h); co-IP; HeLa cells treated with the Aurora kinase inhibitor VX-680 (0.5 μM, 24 h); lysate immunoprecipitated, immunoblot.

These are yes or no findings as the source states them, for the method shown. In cells and extracts the contact can be indirect. Some results given as binding are weak or reduced against the parent protein; the word gives no strength.

On to “potassium channel tetramerization domain containing 12 (KCTD12) (from UniProt Q96CX2 1-325)”, for which the values for the binding entry in assay [1], in assay [2] and in assay [3] were “binds”, “binds” and “no binding”, respectively.

These data come from publication PMC5671937.
